Laboratory results taken from patent publication US20240076371A1, “COMPOSITIONS AND METHODS FOR TREATING OSTEOARTHRITIS, RHEUMATOID ARTHRITIS, AND JOINT AND TENDON DISORDERS” (BOARD OF REGENTS, THE UNIVERSITY OF TEXAS SYSTEM, priority 2021, published 2024).

Test system: knee joint region (synovium)
Test: In vivo antibody binding pattern in the knee joint (immunofluorescence)
Set-up: species or system mouse
Settings: 25 mg/kg i.p.
Text: Immunofluorescent staining. The isolated femur and tibia bones were fixed in 4% paraformaldehyde for 2 days prior to decalcification with 10% EDTA (pH 7.5) for 3 weeks, and then dehydrated in 30% sucrose/PBS for 3 days. Samples were embedded in the Tissue-Tek CRYO OCT compound (Thermo Fisher Scientific, Pittsburgh, PA, USA), and 12-μm-thick sections were collected on glass slides. Sections were blocked and permeabilized with 2% goat serum, 2% fish skin gelatin, 0.025% Triton X-100 and 1% bovine serum albumin in PBS. The sections were incubated overnight at 4° C. with affinity-purified antibodies against Cx43 (CT) (1:100) (Cherian P P, et al. The Journal of biological chemistry. 2003; 278(44):43146-56), for 1 hour with the appropriate secondary antibody. Slides were mounted using Vectashield mounting medium (H-1000, Vector Lab). Confocal fluorescence imaging was performed using a confocal laser scanning microscope (LSM770, Carl Zeiss, Oberkochen, Germany).
M1 antibody binds to synovium and inhibits hemichannel opening in OA. Due to the dense nature of cartilage and large size of antibodies, a widely held perception is that antibodies are unable to penetrate the cartilage matrix. To determine the antibody binding pattern in the knee joint region, M1 antibody (25 mg/kg) with human IgG epitope or saline was intraperitoneally (i.p.) injected at 30 mins after DMM surgery. […]

B1: M1 antibody: antibody with variable heavy chain SEQ ID NO: 58 and variable light chain SEQ ID NO: 60; inhibits or blocks opening of Cx43 hemichannel (antibody, V domains shown)
VH: EVQLQQPGAELVKPGASVKLSCKASGYTFTSYYMYWVKQRPGQGLEWIGGINPSNGGTNFNEKFKNKATLTVDKSSSTAYMQLSSLTSEDSAVYYCTREGNPYYTMNYWGQGTSVTVSS
VL: DIVMTQSPSSLSVSAGEKVTMSCKSSQSLLNSGNQKTYLAWYQQKPGQPPKLLIYGASTRESGVPDRFTGSGSGTDFTLTISSVQAEDLAVYYCQNDHSYPFTFGSGTKLEIK
co-localization with macrophage marker CD68: co-localized with CD68 | co-localization with synovial fibroblast marker Periostin: co-localization
